The supplement of paper PMC4807443
Where a name gives a salt, the structure may show the parent alone. Some of the results follow. The numbers are fractions of the control, whatever unit the source prints. Most entries show no effect beyond the scatter of the controls.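 MIN6 is a mouse insulinoma beta-cell line that stably carries a lentiviral reporter in which the Pdx1 and Ins1 promoters each drive a nucleus-targeted fluorescent protein; cells were counted by automated imaging with a Hoechst nuclear stain. In the screen, a drug was a possible hit when its Ins1 promoter readout lay beyond two median absolute deviations from the DMSO controls while Pdx1 activity stayed near normal.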

test system: MIN6; assay: % Pdx1+ Ins1-low (RFP-only, immature) cells relative to DMSO control (fold of DMSO control); higher = more immature Pdx1+/Ins1-low cells; conditions: 8.5 µM; 48 h; glucose 5 mM

Structure (SMILES) | % Pdx1+ Ins1-low
Cc1cc(C(C)(C)CC(C)(C)C)ccc1OCCOCC[N+](C)(C)Cc1ccccc1 [Methyl benzethonium chloride] | 0.967
Cc1cc(NC(=O)C2=C(O)c3ccccc3S(=O)(=O)N2C)no1 [Isoxicam] | 1.44
Nc1ccc(O)c(C(=O)O)c1 [Mesalamine] | 0.605
Clc1ccccc1CN1CCc2sccc2C1 [Ticlopidine hydrochloride] | 1.33
CCN(CC)CCOC(=O)C1(c2ccc([N+](=O)[O-])cc2)CCCC1 [Nitrocaramiphen hydrochloride] | 0.964
COC(=O)C1=C(C)NC(C)=C(C(=O)OC)C1c1ccccc1[N+](=O)[O-] [Nifedipine] | 0.509
C#C[C@]1(O)CC[C@H]2[C@@H]3CCC4=CC(=O)CC[C@@H]4[C@H]3CC[C@@]21C [Norethindrone] | 0.86
CO[C@@]1(NC(=O)C(C(=O)O)c2ccc(O)cc2)C(=O)N2C(C(=O)O)=C(CSc3nnnn3C)CO[C@@H]21 (some centres undefined) [Moxalactam disodium salt] | 0.633
Nc1ccc(S(=O)(=O)Nc2ncccn2)cc1 [Sulfadiazine] | 0.946
C#C[C@]1(OC(C)=O)CC[C@H]2[C@@H]3CCC4=C[C@@H](OC(C)=O)CC[C@@H]4[C@H]3CC[C@@]21C [Ethynodiol diacetate] | 1
O=C1C(CC[S+]([O-])c2ccccc2)C(=O)N(c2ccccc2)N1c1ccccc1 (centres undefined) [Sulfinpyrazone] | 0.829
NS(=O)(=O)c1cc2c(cc1Cl)N=C(CSCc1ccccc1)NS2(=O)=O [Benzthiazide] | 1.29
CC(=O)O[C@]1(C(C)=O)CC[C@H]2[C@@H]3C=C(C)C4=CC(=O)CC[C@@H]4[C@H]3CC[C@@]21C [Nomegestrol acetate] | 1.06
CN1CCN(CCCN2c3ccccc3Sc3ccc(S(=O)(=O)N(C)C)cc32)CC1 [Thioproperazine dimesylate] | 0.887
O=C(O)Cc1ccccc1Nc1c(Cl)cccc1Cl [Diclofenac sodium] | 1.27
CC(C)Cc1ccc([C@H](C)C(=O)O)cc1 [S-(+)-ibuprofen] | 0.629
CS(=O)(=O)c1ccc([C@@H](O)[C@@H](CO)NC(=O)C(Cl)Cl)cc1 [Thiamphenicol] | 0.815
C[C@]12C=CC(=O)C=C1CC[C@@H]1[C@@H]2[C@@H](O)C[C@@]2(C)[C@H]1CC[C@]2(O)C(=O)CO [Prednisolone] | 0.975
CC(=O)Oc1cc(C(F)(F)F)ccc1C(=O)O [Triflusal] | 0.688
CC(C)(C)NC[C@H](O)COc1nsnc1N1CCOCC1 [Timolol maleate salt] | 1
NCCCC[C@H](N[C@@H](CCc1ccccc1)C(=O)O)C(=O)N1CCC[C@H]1C(=O)O [Lisinopril] | 0.855
CCOC(=O)OC(C)OC(=O)[C@@H]1N2C(=O)[C@@H](NC(=O)[C@H](N)c3ccccc3)[C@H]2SC1(C)C (some centres undefined) [Bacampicillin hydrochloride] | 0.71

Structure (SMILES) | % Pdx1+ Ins1-low
Cc1cc(=O)oc2cc(O)ccc12 [Hymecromone] | 0.531
CCOC(=O)c1ccc(OC(=O)CCCCCNC(=N)N)cc1 [Gabexate mesilate] | 0.975
CCCCC[C@H](O)/C=C/[C@@H]1[C@@H](C/C=C\CCCC(=O)O)[C@@H](O)C[C@H]1O [Dinoprost trometamol] | 1.16
CC(=O)c1ccc(S(=O)(=O)NC(=O)NC2CCCCC2)cc1 [Acetohexamide] | 0.874
CC(COc1ccccc1)N(CCCl)Cc1ccccc1 (centres undefined) [Phenoxybenzamine hydrochloride] | 0.641
CCCNC(C)C(=O)Nc1ccccc1C (centres undefined) [Prilocaine hydrochloride] | 1
COc1ccc(CN(CCN(C)C)c2ccccn2)cc1 [Pyrilamine maleate] | 0.778
Cc1scc2c1N(C(=O)CN1CCN(C)CC1)c1ccccc1NC2=O [Telenzepine dihydrochloride] | 1.44
COc1cc2cc3c4cc(OC)c(OC)cc4cc[n+]3c(C)c2cc1OC [Coralyne chloride hydrate] | 1.35
C=C1c2cccc(O)c2C(=O)C2=C(O)[C@]3(O)C(=O)C(C(N)=O)=C(O)[C@@H](N(C)C)[C@@H]3[C@@H](O)[C@H]12 [Methacycline hydrochloride] | 0.593
c1ccc(C2CN3CCSC3=N2)cc1 (centres undefined) [Tetramisole hydrochloride] | 0.736
Cn1c(=O)c2nc[nH]c2n(C)c1=O [Theophylline monohydrate] | 0.816
O=C(Cn1ccnc1[N+](=O)[O-])NCCO [Etanidazole] | 0.952
CO[C@H]1/C=C/O[C@@]2(C)Oc3c(C)c(O)c4c(c3C2=O)C2=NC3(CCN(CC(C)C)CC3)NC2=C(NC(=O)/C(C)=C\C=C\[C@H](C)[C@H](O)[C@@H](C)[C@@H](O)[C@@H](C)[C@H](OC(C)=O)[C@@H]1C)C4=O [Rifabutin] | 0.679
O=c1cc(-c2ccc(O)cc2)oc2cc(O)cc(O)c12 [Apigenin] | 1.23
NC(=O)N1c2ccccc2C=Cc2ccccc21 [Carbamazepine] | 0.96
Clc1ccc(C(Cn2ccnc2)OCc2c(Cl)cccc2Cl)c(Cl)c1 (centres undefined) [Isoconazole] | 0.868
COc1c(O[C@@H]2O[C@H](CO)[C@@H](O)[C@H](O)[C@H]2O)cc2c(c1OC)-c1ccc(SC)c(=O)cc1[C@@H](NC(C)=O)CC2 [Thiocolchicoside] | 0.803
CN(C)CCN(Cc1cccs1)c1ccccn1 [Methapyrilene hydrochloride] | 1.05
CC(=O)N[C@@H](CC(C)C)C(=O)O [N-Acetyl-L-leucine] | 0.984
Nc1nc(=O)c2nc(CNc3ccc(C(=O)N[C@@H](CCC(=O)O)C(=O)O)cc3)cnc2[nH]1 [Folic acid] | 0.895
CC[C@H]1OC(=O)[C@H](C)[C@@H](O[C@H]2C[C@@](C)(OC)[C@@H](O)[C@H](C)O2)[C@H](C)[C@@H](O[C@@H]2O[C@H](C)C[C@H](N(C)C)[C@H]2O)[C@](C)(O)C[C@@H](C)/C(=N\OCOCCOC)[C@H](C)[C@@H](O)[C@]1(C)O [Roxithromycin] | 0.829

Arranged by SMILES length (ascending): some entries from above
Structure (SMILES) | % Pdx1+ Ins1-low
COc1ccc(CN(CCN(C)C)c2ccccn2)cc1 [Pyrilamine maleate] | 0.778
CC(=O)O[C@]1(C(C)=O)CC[C@H]2[C@@H]3C=C(C)C4=CC(=O)CC[C@@H]4[C@H]3CC[C@@]21C [Nomegestrol acetate] | 1.06
CO[C@H]1/C=C/O[C@@]2(C)Oc3c(C)c(O)c4c(c3C2=O)C2=NC3(CCN(CC(C)C)CC3)NC2=C(NC(=O)/C(C)=C\C=C\[C@H](C)[C@H](O)[C@@H](C)[C@@H](O)[C@@H](C)[C@H](OC(C)=O)[C@@H]1C)C4=O [Rifabutin] | 0.679
